Results on 14 targets are retold here after the supplement of paper PMC12067093, “Discovery and optimisation of a covalent ligand for TRIM25 and its application to targeted protein ubiquitination” (Chemical Science, 2025).

Protein sequences, listed by entry. Tags and fused reporters are not part of them. Lines headed by an entry give the natural chain unless they say otherwise; changes in a name come on top.
UniProt Q96M94: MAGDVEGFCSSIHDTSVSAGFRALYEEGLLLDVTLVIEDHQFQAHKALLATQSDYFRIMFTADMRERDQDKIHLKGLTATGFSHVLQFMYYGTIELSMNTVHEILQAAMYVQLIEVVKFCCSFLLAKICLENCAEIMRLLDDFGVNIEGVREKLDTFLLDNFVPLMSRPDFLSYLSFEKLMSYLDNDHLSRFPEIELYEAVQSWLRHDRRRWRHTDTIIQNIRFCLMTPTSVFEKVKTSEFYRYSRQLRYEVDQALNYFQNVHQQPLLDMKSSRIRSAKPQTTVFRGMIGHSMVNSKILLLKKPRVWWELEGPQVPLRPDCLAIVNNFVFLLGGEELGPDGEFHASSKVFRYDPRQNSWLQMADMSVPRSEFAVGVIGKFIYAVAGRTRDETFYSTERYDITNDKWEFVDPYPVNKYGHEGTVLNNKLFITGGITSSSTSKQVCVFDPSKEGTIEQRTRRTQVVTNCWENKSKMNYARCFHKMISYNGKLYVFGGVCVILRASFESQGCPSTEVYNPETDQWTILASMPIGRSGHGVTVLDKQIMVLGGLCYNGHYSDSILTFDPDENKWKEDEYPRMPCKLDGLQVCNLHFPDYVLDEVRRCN
UniProt Q9UMN6, whole entry, looked up: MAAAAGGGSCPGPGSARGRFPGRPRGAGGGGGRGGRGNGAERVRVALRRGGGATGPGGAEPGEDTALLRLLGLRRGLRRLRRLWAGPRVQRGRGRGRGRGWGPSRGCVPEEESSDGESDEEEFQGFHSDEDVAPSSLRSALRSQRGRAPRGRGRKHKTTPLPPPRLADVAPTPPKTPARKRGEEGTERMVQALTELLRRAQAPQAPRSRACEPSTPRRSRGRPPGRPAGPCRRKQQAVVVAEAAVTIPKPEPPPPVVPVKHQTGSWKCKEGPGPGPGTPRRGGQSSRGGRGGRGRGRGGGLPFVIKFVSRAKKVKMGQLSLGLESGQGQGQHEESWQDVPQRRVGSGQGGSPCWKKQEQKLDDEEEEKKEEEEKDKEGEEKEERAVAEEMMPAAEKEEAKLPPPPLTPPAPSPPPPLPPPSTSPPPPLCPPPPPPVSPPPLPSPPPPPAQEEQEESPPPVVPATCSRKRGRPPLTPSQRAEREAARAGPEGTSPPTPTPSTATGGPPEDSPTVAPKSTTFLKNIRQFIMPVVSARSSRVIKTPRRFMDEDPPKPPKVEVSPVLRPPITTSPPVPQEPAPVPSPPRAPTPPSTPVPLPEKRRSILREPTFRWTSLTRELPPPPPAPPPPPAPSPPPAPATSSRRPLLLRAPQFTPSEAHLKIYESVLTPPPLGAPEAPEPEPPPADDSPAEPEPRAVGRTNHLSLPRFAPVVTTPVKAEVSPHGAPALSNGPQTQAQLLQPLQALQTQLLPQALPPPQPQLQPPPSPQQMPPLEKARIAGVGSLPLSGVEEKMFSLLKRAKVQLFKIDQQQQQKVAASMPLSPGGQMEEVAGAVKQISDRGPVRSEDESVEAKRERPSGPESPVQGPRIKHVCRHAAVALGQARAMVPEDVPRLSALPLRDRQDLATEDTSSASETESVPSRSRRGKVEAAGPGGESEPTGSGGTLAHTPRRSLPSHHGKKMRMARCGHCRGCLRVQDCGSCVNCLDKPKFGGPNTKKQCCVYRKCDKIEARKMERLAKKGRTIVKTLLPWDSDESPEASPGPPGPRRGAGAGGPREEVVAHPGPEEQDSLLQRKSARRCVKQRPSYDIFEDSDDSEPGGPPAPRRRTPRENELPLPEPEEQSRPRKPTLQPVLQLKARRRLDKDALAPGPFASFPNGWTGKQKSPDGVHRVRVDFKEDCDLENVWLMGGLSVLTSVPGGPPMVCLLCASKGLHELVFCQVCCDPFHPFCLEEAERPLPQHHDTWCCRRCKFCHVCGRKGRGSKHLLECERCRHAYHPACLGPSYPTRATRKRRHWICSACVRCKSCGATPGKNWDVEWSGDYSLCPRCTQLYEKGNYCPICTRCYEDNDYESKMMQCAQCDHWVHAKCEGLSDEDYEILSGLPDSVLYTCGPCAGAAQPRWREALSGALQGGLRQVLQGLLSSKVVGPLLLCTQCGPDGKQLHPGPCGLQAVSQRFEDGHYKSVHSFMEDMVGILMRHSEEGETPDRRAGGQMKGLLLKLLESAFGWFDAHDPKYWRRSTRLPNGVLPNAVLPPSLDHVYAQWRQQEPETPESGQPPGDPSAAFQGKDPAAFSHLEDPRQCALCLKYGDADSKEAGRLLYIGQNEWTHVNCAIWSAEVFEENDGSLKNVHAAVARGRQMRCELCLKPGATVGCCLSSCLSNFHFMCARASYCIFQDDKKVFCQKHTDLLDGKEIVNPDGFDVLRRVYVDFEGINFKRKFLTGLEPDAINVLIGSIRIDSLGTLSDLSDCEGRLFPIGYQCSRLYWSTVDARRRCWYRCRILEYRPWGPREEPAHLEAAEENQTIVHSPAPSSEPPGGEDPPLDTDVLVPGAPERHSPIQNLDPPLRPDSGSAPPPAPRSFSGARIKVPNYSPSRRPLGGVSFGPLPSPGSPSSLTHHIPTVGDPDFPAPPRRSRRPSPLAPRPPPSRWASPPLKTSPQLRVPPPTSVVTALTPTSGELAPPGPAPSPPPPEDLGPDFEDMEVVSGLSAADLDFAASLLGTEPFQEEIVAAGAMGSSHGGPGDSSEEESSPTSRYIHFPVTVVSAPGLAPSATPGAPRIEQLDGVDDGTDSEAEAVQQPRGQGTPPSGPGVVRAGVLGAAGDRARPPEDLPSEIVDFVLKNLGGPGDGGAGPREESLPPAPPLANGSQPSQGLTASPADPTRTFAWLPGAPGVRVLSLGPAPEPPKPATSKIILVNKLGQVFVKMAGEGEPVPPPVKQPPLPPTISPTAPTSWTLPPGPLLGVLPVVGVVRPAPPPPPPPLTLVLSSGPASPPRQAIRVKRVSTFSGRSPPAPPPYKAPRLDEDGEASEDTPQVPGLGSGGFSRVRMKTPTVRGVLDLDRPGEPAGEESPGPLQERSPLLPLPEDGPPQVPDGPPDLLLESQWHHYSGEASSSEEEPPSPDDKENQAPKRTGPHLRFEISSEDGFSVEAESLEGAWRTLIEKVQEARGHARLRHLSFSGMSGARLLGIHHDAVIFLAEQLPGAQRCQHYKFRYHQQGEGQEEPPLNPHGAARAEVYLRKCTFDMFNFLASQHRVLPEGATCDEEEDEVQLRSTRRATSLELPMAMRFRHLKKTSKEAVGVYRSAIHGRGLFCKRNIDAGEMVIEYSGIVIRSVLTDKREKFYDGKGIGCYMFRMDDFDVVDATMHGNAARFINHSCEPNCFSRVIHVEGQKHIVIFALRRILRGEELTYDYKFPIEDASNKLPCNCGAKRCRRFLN
UniProt Q2M2Z5: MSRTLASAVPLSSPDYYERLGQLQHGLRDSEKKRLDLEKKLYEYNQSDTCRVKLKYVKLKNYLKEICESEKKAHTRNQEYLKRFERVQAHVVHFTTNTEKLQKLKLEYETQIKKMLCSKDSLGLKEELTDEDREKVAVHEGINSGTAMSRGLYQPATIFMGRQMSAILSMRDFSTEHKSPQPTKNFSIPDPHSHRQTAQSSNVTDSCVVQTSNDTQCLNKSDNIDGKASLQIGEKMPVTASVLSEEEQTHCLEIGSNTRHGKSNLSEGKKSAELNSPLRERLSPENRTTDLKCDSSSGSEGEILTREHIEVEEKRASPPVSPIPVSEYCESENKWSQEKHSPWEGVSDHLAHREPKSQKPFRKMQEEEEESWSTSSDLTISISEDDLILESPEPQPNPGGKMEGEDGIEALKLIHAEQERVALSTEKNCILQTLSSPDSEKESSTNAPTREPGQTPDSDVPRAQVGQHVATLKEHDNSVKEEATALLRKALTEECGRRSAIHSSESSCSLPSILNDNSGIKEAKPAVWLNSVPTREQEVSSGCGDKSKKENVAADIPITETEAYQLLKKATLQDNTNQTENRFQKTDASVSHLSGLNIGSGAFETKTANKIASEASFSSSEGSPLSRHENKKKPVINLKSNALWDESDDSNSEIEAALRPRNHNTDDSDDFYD
UniProt O00629, whole entry, looked up: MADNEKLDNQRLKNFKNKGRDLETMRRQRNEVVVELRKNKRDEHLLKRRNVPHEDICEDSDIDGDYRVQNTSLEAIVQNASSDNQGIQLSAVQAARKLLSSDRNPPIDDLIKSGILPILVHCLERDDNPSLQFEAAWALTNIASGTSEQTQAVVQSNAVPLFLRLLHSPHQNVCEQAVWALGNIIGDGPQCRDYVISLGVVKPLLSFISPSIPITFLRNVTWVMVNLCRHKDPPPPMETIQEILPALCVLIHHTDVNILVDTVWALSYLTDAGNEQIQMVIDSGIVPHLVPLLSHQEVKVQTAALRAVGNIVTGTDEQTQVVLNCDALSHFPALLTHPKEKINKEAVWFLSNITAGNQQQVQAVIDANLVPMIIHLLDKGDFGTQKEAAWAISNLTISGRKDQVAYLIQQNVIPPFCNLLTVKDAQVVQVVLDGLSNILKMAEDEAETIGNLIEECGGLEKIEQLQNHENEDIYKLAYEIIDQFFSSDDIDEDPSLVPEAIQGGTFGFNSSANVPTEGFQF
UniProt Q4G0J3: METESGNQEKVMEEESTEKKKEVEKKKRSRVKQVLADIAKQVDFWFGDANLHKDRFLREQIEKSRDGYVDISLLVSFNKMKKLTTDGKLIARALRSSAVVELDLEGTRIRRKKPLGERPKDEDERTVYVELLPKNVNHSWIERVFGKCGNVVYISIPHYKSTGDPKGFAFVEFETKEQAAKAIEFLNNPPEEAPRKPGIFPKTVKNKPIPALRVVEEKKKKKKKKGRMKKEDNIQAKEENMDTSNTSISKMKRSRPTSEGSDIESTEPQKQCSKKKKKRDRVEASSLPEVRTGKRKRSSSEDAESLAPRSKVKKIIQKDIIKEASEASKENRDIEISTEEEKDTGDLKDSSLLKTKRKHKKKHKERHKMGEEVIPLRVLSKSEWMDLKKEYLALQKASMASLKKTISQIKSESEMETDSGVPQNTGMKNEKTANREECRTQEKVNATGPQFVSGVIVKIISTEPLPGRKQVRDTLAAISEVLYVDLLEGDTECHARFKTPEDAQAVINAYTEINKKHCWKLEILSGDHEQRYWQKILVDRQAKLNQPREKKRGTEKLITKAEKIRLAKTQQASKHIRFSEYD
UniProt Q71RC2, whole entry, looked up: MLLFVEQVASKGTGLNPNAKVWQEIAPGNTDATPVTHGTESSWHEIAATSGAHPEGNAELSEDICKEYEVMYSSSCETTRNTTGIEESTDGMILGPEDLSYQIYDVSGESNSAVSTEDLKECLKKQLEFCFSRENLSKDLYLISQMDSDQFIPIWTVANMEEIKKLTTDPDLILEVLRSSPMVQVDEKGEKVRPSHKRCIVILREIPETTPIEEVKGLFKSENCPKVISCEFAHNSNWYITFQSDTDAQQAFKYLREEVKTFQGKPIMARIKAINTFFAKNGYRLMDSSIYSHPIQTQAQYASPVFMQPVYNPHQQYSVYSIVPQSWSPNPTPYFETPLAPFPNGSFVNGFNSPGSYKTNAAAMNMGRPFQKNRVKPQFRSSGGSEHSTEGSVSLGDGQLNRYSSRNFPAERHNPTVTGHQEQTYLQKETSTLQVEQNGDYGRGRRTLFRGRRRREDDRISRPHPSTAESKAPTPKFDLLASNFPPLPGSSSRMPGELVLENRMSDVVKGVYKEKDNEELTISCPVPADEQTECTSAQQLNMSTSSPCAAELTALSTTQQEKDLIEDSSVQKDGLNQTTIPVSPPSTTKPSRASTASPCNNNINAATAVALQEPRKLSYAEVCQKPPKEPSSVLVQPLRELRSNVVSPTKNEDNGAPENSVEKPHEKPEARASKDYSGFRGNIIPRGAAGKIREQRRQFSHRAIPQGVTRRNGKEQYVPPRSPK
UniProt Q96EM0: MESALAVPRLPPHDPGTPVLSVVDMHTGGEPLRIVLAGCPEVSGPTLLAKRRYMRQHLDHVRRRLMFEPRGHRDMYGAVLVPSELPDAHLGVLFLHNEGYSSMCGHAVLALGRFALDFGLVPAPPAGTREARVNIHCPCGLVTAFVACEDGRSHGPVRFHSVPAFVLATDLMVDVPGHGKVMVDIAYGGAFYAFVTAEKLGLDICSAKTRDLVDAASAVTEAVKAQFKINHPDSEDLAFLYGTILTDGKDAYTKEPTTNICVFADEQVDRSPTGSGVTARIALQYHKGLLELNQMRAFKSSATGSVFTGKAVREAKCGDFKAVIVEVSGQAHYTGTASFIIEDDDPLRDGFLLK

Compound in the test: CC1Cc2ccccc2N1C(=O)C1CCCN(C1)C(=O)CCl (mixture of isomers) [TRIM25 ligand 11 (diastereomer mixture)]
In words: probe-labelled cysteine peptide fold change vs DMSO (competition) (log2 fold change); higher = less target engagement (more negative = stronger competition). Conditions: THP-1, incubation time: 4 h.

The other results are listed elsewhere or left out.
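Note: competitive chemoproteomic profiling in live THP-1 cells with an iodoacetamide desthiobiotin (IA-DTB) probe, comparing probe-labelled peptide intensities in compound-treated cells against DMSO-treated controls.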

As to “LARS_Q9P2J5_546_QTSQCLK (UniProt Q9P2J5)”, the “probe-labelled cysteine peptide fold change” value is, setting by setting: (10 µM) -0.0199; (50 µM) 0.0402.
On the same counts, the results for “KIF21A_Q7Z4S6_1588_DWVCALGVVPDHPVLLSGCR (UniProt Q7Z4S6)” are -0.0119 and -0.0291.
For “KLHL15_Q96M94_588_LDGLQVCNLHFPDYVLDEVR (UniProt Q96M94)”, the “probe-labelled cysteine peptide fold change” value runs as follows: (10 µM) -0.0595; (50 µM) -0.00599.
On the same counts, the results for “KMT2B_Q9UMN6_353_VGSGQGGSPCWK (UniProt Q9UMN6)” are -0.0522 and -0.253.
On the same counts, the results for “KIZ_Q2M2Z5_50_LYEYNQSDTCR (UniProt Q2M2Z5)” are 0.0174 and -0.0661.
On the same counts, the results for “KPNA4_O00629_57_NVPHEDICEDSDIDGDYR (UniProt O00629)” are -0.332 and -0.102.
With “KLHDC4_Q8TBB5_373_EEPEGGSRPACGGAGTQGPVQLVK (UniProt Q8TBB5)”, the “probe-labelled cysteine peptide fold change” value by setting is: (10 µM) 0.109; (50 µM) 0.0228.
On the same counts, the results for “LARP7_Q4G0J3_493_DTLAAISEVLYVDLLEGDTECHAR (UniProt Q4G0J3)” are 0.0973 and 0.0714.
On the same counts, the results for “KPNA4_O00629_417_DQVAYLIQQNVIPPFCNLLTVK (UniProt O00629)” are 0.407 and 0.126.
On the same counts, the results for “LANCL2_Q9NS86_169_SDCESQECVTK (UniProt Q9NS86)” are 0.245 and 0.229.
For the target “LARP7_Q4G0J3_438_TANREECR (UniProt Q4G0J3)”, the “probe-labelled cysteine peptide fold change” value is -0.0364 (10 µM) and -0.0648 (50 µM).
For “LARP4_Q71RC2_599_ASTASPCNNNINAATAVALQEPR (UniProt Q71RC2)”, the “probe-labelled cysteine peptide fold change” value is -0.13 (10 µM) and -0.457 (50 µM).
Consider “L3HYPDH_Q96EM0_137_VNIHCPCGLVTAFVACEDGR (UniProt Q96EM0)”, for which the “probe-labelled cysteine peptide fold change” value runs as follows: (10 µM) -0.0395; (50 µM) 0.033.
On the same counts, the results for “LARP1B_Q659C4_102_CQPEANKPTHNNR, A0A3B3ISF0+Q659C4” are -0.0075 and -0.196.
